Test: general procedure: peptide synthesis; 2-chlorotrityl chloride polystyrene resin
Conditions: cyclisation step

With “Cyclo[D-Ala-Thz-Trp-Trp(4-Cl)-Gly-D-Ala-Dhb-Sar]” the cyclisation yield (on crude linear peptide) was 5%.
Work on “Cyclo[D-Ala-Thz-Trp-Trp(4-C1)-Gly-D-Ala-Dha-Sar]” yielded a cyclisation yield (on crude linear peptide) of 5%.
Substance “Cyclo[D-Ser(OMe)-Thz-Trp-Trp(4-Br)-Gly-D-Ala-Dhb-Sar]” has a cyclisation yield (on crude linear peptide) of 19%.
For “Cyclo[D-Ala-Thz-Trp-Trp(4-Br)-Gly-D-Ala-Dhb-Sar]”, the cyclisation yield (on crude linear peptide) was 35%.
For “Cyclo[D-Ala-Thz-Trp-Trp(4-F)-Gly-D-Ala-Dha-Sar]”, the cyclisation yield (on crude linear peptide) was 2%.
“Cyclo[D-Ala-Thz-Trp-Trp(4-Br)-Gly-D-Ala-Dhp-Sar]” gave a cyclisation yield (on crude linear peptide) of 35%.
For “Cyclo[D-Ala-Thz-Trp-Trp(4-CF3)-Gly-D-Ala-Dha-Sar]”, the cyclisation yield (on crude linear peptide) was 6%.
Work on “Cyclo(D-Ala-D-Thiazole-L-Trp-L-Trp-Gly-D-Ala-Dha-Sar)” yielded a cyclisation yield of 7% yield.
In the case of “Cyclo[D-Ala-Thz-Trp-Trp(4-MeO)-Gly-D-Ala-Dha-Sar]”, the cyclisation yield (on crude linear peptide) is reported as 11%.
“Cyclo[D-Ser(OMe)-Thz-Trp-Trp(4-Br)-Gly-D-Ala-Dha-Sar]” showed a cyclisation yield (on crude linear peptide) of 6%.
“Cyclo[D-Ala-Thz-Trp-Trp(4-Br)-Gly-D-Ala-Dha-Sar]” showed a cyclisation yield (on crude linear peptide) of 7%.
For “Cyclo[D-Ala-Thz-Trp-Trp(4-Cl)-Gly-D-Ala-Thr-Sar]”, the cyclisation yield (on crude linear peptide) was 14%.
For “Cyclo[D-Ser-Thz-Trp-Trp(4-C1)-Gly-D-Ala-Dha-Sar]”, the cyclisation yield (on crude linear peptide) was 4%.
“Cyclo[D-Ala-Thz-Trp-Trp(4-Br)-Gly-D-Ala-Dhv-Sar]” showed a cyclisation yield (on crude linear peptide) of 42%.
“Cyclo[D-Ala-Thz-Trp-Trp(4,5-C1)-Gly-D-Ala-Dha-Sar]” showed a cyclisation yield (on crude linear peptide) of 2%.
With “Cyclo[D-Ala-Thz-Trp-Trp(4-Br)-Gly-D-Ala-Dhl-Sar]” the cyclisation yield (on crude linear peptide) was 35%.
